Assay results reported in the supplement of paper PMC10849652.
The other results are listed elsewhere or left out.

The chains behind the UniProt entries cited, without tags or fusion partners. Where a name states a change or a piece, a line headed by the entry shows the natural chain unless it says otherwise.
UniProt Q96P47: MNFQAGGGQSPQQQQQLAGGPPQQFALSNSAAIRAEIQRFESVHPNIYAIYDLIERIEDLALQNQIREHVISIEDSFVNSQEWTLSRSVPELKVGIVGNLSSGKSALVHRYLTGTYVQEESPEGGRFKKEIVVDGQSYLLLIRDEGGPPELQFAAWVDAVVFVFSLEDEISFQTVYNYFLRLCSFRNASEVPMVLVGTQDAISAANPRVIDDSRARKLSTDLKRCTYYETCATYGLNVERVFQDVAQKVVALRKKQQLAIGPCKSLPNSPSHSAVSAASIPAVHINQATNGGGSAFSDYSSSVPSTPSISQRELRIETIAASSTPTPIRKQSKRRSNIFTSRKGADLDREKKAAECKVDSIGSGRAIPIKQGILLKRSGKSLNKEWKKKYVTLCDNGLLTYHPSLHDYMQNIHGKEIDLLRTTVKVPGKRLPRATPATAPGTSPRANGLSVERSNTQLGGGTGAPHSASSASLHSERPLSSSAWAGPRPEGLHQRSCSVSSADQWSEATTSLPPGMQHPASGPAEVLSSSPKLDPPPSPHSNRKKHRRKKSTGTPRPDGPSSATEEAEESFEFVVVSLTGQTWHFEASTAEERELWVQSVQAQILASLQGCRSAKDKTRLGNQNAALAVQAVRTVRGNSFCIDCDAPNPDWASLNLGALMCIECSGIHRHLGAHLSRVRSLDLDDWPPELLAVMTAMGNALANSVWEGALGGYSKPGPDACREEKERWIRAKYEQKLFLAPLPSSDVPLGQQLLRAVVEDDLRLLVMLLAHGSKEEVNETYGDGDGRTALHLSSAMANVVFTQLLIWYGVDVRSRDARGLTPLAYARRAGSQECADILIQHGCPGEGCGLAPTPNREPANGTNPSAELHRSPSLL
UniProt Q9BV57: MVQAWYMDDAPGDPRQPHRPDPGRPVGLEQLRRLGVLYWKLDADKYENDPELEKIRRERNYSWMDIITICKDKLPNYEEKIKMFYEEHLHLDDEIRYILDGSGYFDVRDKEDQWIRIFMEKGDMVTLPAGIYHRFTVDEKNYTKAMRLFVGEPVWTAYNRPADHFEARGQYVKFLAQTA
UniProt Q9Y305: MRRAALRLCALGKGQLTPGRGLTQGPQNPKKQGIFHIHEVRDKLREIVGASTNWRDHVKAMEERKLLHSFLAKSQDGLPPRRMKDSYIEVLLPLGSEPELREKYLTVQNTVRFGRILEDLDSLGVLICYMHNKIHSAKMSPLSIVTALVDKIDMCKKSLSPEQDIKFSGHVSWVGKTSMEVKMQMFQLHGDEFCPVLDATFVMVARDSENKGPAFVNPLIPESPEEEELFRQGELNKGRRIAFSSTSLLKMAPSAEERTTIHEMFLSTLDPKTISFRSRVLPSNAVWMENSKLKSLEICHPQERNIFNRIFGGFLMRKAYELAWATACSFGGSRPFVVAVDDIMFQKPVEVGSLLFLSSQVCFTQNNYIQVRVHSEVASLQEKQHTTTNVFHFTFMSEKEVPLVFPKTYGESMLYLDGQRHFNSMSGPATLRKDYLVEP
UniProt Q9GZN1, whole entry, looked up: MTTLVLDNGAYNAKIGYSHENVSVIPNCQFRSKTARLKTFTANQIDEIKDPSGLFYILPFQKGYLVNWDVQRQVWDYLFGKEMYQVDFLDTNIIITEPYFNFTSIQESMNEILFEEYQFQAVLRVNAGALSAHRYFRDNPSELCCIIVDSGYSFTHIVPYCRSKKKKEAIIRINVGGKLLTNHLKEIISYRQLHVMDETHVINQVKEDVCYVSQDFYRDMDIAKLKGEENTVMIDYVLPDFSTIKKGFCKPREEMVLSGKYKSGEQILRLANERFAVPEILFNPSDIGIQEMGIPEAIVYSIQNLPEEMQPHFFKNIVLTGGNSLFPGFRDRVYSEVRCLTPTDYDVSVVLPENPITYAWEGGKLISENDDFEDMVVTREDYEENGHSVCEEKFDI
UniProt O00116: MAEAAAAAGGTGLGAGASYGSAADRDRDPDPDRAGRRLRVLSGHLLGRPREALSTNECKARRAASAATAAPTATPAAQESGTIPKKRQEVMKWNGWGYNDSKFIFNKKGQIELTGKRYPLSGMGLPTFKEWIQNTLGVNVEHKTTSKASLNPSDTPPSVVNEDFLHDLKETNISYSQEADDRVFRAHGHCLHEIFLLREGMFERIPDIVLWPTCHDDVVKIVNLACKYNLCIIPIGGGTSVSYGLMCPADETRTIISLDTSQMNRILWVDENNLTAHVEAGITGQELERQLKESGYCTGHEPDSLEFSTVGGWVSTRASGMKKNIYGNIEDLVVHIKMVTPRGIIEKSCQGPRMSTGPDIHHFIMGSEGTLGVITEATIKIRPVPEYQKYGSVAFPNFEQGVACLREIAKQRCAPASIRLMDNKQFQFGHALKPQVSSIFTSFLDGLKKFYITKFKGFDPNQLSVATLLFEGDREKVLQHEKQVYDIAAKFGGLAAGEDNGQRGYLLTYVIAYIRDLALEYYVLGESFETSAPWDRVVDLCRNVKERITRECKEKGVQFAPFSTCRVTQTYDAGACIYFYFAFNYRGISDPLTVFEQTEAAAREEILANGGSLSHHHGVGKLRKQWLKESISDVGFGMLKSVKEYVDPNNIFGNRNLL
UniProt P24666: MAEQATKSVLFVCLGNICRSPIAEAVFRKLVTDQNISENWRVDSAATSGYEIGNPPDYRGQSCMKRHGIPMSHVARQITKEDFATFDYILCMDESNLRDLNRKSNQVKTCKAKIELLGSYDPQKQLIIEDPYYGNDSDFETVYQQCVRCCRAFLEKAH
UniProt Q13155: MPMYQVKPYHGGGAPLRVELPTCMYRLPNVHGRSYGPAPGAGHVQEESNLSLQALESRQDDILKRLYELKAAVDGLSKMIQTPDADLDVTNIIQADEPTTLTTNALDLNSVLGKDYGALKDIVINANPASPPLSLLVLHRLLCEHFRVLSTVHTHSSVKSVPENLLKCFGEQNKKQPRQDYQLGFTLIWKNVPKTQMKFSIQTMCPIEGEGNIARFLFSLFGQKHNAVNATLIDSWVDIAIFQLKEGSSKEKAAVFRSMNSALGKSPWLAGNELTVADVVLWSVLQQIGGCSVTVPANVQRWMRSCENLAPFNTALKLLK
UniProt Q6RW13: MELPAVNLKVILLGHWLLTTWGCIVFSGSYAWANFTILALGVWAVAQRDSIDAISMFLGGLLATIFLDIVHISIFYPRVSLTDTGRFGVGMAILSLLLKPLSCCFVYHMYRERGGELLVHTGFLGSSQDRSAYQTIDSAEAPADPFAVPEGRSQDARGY
UniProt P54922: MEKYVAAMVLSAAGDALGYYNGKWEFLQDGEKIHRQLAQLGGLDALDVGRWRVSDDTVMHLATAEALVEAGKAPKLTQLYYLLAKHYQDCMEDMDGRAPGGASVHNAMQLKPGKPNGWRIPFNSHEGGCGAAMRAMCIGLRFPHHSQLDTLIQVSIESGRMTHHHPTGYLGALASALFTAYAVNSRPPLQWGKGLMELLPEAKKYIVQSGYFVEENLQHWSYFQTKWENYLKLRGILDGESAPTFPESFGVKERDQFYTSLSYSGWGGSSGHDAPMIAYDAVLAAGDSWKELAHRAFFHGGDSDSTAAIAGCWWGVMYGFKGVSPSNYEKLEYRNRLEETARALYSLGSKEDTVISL
UniProt P11766: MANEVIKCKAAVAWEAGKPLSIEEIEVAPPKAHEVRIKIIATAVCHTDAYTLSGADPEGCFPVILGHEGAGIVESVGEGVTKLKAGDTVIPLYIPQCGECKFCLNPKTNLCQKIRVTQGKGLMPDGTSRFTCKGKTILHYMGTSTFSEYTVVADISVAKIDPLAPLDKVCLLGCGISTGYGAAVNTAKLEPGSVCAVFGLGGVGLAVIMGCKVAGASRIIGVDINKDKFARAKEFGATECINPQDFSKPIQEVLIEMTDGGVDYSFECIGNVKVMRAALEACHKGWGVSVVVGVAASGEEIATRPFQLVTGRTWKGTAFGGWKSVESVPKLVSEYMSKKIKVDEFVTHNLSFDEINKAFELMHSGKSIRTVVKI
UniProt Q16186: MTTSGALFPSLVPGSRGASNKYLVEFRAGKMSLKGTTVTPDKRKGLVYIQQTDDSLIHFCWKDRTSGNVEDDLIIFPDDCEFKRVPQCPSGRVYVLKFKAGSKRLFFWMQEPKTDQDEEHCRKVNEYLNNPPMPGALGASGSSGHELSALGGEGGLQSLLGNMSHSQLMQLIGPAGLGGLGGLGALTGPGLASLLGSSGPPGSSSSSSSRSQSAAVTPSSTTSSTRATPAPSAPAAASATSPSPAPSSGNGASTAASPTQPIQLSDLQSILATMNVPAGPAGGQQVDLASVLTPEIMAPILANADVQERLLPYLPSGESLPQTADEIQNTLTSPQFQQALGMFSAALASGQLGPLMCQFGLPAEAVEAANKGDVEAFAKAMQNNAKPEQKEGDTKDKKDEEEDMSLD
UniProt Q9UNA0: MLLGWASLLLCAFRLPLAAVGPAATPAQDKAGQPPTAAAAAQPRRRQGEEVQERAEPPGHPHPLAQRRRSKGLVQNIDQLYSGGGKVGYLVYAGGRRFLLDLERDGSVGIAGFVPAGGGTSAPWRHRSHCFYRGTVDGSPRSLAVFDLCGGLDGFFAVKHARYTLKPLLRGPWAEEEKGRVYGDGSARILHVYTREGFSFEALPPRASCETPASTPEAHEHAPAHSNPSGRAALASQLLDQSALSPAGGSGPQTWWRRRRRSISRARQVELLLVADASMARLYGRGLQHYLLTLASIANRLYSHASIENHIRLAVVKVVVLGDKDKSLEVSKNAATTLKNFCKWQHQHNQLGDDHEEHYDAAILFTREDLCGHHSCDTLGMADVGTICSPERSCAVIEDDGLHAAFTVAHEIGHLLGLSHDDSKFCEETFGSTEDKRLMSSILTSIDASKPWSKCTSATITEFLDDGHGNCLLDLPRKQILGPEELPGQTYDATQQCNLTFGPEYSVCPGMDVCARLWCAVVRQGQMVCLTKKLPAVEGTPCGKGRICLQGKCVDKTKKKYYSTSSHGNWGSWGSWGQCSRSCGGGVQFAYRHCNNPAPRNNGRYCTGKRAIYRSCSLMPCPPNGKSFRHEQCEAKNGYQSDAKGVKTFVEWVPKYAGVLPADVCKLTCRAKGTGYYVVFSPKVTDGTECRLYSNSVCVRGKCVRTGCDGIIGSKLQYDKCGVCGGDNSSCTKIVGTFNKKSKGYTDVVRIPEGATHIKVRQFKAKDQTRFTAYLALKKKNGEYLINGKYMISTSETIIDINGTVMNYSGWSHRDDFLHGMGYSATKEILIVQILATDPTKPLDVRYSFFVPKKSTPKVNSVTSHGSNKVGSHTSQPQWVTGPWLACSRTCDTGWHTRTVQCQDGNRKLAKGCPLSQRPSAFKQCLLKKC
UniProt P23526: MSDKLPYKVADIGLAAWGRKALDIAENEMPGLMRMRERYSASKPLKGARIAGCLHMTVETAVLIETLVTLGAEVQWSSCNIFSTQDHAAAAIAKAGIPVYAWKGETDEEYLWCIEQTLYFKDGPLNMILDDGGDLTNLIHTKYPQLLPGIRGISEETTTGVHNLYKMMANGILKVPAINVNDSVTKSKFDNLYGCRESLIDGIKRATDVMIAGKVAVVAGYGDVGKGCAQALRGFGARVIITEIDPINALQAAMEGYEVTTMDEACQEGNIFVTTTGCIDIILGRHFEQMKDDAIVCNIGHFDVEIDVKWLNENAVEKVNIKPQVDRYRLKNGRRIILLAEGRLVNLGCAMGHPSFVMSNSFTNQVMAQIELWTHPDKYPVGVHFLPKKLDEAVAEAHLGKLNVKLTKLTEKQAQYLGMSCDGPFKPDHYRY
UniProt Q12904: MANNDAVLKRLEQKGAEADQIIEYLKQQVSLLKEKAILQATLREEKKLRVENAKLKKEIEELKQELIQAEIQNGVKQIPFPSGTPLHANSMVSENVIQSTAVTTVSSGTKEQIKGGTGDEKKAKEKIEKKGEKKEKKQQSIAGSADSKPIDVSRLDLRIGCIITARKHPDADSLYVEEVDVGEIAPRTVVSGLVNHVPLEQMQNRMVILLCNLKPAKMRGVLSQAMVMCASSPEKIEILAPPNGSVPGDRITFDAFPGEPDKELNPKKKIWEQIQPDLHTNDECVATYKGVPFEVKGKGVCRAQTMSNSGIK
UniProt Q7Z6V5: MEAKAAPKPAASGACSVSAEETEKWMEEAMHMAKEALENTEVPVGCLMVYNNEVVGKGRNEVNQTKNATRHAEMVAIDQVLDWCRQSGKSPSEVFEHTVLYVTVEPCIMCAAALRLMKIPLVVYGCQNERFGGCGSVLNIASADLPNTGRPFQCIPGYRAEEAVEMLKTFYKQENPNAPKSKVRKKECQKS
UniProt Q9NX46: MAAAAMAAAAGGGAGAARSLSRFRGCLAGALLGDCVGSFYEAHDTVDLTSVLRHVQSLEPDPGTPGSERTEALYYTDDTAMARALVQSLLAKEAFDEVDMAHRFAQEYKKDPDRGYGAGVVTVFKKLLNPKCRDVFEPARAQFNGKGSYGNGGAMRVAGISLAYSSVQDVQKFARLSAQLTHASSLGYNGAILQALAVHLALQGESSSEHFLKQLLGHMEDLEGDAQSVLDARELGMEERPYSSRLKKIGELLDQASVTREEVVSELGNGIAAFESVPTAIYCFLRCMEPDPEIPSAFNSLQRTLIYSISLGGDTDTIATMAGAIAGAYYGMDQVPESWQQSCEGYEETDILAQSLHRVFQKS

These targets were tested with Cc1cc(Nc2cc(CN3CCOCC3)c3nc(C)c(Cc4ccc(Cl)cc4F)n3n2)n[nH]1 [gandotinib] (assay: log2 fold change, soluble protein after heating vs DMSO (PISA); higher = thermal stabilisation; K562 lysate, 10 uM; active = over 0.2 and 3.5 SD of the protein, either way, in both replicates (recomputed)).
Method in brief: (§1)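 Values give the log-two fold change in thermal stability against solvent controls, from duplicates. Crude K562 extract at 1 mg/mL protein, made by dounce homogenisation in PBS pH 7.4 with 1 mM MgCl2, was treated with 10 μM compound for 30 min. After 3 min heating across 48°C-58°C, aliquots were pooled, adjusted to 0.5% NP-40 at 4°C and centrifuged at 21,000xg for 90 min. The supernatant was measured by TMTpro 16plex LC-MS/MS with channel sums equalised.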

Target | log2 fold change
AFDN (UniProt J3KN01) | inactive: -0.023
AGAP3 isoform 4 (UniProt Q96P47) | inactive: -0.088
ADI1 (UniProt Q9BV57) | inactive: 0.078
ACOT9 isoform 4 (UniProt Q9Y305) | inactive: -0.051
ACTR6 (UniProt Q9GZN1) | inactive: 0.039
ADD1 isoform 3 (UniProt P35611) | inactive: -0.001
AGPS (UniProt O00116) | inactive: 0.019
AKR1C2 (UniProt P52895) | active: 0.276
ADGRE2 (UniProt Q9UHX3) | inactive: -0.01
AFF4 (UniProt Q9UHB7) | inactive: 0.066

What follows are targets tested with Cc1cc(Nc2cc(N3CCN(C)CC3)nc(Sc3ccc(NC(=O)C4CC4)cc3)n2)n[nH]1 [tozasertib] in the same assay as above.
Method in brief: as §1

Target | log2 fold change
ACP1 (UniProt P24666) | inactive: -0.013
ACTN4 (UniProt K7EJH8) | inactive: 0.021
ACSL3 (UniProt O95573) | inactive: 0.082
AIDA (UniProt Q96BJ3) | inactive: 0.023
AIMP2 (UniProt Q13155) | inactive: 0.041
AGTRAP (UniProt Q6RW13) | inactive: -0.056
ADPRH (UniProt P54922) | inactive: 0.041
ADH5 (UniProt P11766) | inactive: -0.039
ACTA1 (UniProt P68133) | inactive: 0.021
AKR7A2 (UniProt O43488) | inactive: 0.036
AGO3 (UniProt Q9H9G7) | inactive: 0.028
ADRM1 (UniProt Q16186) | inactive: -0.019
AHSA1 (UniProt O95433) | inactive: -0.039
ADAMTS5 (UniProt Q9UNA0) | inactive: 0.011
AHCY (UniProt P23526) | inactive: -0.01
ACTR2 (UniProt P61160) | inactive: -0.013
ADAM9 (UniProt Q13443) | inactive: -0.048

Target | log2 fold change
AIMP1 isoform 2 (UniProt Q12904) | inactive: -0.008
ACTB, A0A2R8Y793 | inactive: -0.023
ACTN1 isoform 3 (UniProt P12814) | inactive: -0.01
AGTPBP1 (UniProt Q9UPW5) | inactive: 0.028
ADAT2 (UniProt Q7Z6V5) | inactive: 0.018
ADPRHL2 (UniProt Q9NX46) | inactive: 0.027
AFDN (UniProt J3KN01) | inactive: 0.011
AGAP3 isoform 4 (UniProt Q96P47) | inactive: 0.052
ADI1 (UniProt Q9BV57) | inactive: 0.024
ACOT9 isoform 4 (UniProt Q9Y305) | inactive: -0.036
ACTR6 (UniProt Q9GZN1) | inactive: 0.001
ADD1 isoform 3 (UniProt P35611) | inactive: -0.002
AGPS (UniProt O00116) | inactive: 0.015
AKR1C2 (UniProt P52895) | inactive: 0.014
ADGRE2 (UniProt Q9UHX3) | inactive: -0.01
AFF4 (UniProt Q9UHB7) | inactive: 0
